The assay addresses T1, VDAC3 (voltage-dependent anion channels 3) (human (endogenous in HGC-27)) (UniProt Q9Y277).
T1 sequence: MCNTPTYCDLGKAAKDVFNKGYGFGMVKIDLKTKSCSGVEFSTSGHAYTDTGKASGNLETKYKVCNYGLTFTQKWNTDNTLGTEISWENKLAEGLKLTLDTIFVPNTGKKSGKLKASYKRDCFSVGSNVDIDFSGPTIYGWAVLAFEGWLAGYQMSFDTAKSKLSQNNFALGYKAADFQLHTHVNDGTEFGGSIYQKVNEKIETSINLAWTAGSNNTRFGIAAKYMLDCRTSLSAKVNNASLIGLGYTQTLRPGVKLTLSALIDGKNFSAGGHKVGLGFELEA
The assay is described as follows: co-IP; HGC-27 cells; immunoprecipitates of VDAC3 and input (20%) separated by SDS-PAGE, western blotting for FBXW7 and VDAC3; Co-IP kit (Abison Biotechnology). On the technique in general: In western blotting, separated proteins are transferred to a membrane and probed.

Chains of the proteins cited; added tags and fusions are not shown.
UniProt Q969H0: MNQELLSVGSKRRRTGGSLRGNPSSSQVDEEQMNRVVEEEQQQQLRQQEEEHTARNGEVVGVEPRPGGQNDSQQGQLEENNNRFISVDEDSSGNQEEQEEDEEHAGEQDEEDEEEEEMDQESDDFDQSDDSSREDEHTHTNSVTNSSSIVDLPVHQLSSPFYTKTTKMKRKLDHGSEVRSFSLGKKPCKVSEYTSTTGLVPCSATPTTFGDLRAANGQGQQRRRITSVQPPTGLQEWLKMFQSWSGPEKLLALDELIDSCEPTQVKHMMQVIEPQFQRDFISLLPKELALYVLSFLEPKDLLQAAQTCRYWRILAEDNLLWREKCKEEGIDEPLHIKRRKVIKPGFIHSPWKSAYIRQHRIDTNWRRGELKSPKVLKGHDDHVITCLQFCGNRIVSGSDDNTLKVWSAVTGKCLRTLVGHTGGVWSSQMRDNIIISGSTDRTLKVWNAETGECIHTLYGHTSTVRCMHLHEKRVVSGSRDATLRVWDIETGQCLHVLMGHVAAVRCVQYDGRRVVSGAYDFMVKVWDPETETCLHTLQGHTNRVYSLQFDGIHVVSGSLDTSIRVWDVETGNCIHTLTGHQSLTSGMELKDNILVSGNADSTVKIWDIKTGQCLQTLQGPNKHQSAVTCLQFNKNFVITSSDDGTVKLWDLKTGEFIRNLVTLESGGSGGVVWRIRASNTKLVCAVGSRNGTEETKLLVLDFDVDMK

These are yes or no findings as the source states them, for the method shown. In cells and extracts the contact can be indirect. Some results given as binding are weak or reduced against the parent protein; the word gives no strength. Sequences can lack the tags named with a protein.

Take FBXW7 (from UniProt Q969H0 1-707): the binding entry was “binds”.

The values above are taken from paper PMC8898362.
